Test results: paper PMC8325102

Amino acid sequences for entries named in this document (tags omitted).
UniProt P68400: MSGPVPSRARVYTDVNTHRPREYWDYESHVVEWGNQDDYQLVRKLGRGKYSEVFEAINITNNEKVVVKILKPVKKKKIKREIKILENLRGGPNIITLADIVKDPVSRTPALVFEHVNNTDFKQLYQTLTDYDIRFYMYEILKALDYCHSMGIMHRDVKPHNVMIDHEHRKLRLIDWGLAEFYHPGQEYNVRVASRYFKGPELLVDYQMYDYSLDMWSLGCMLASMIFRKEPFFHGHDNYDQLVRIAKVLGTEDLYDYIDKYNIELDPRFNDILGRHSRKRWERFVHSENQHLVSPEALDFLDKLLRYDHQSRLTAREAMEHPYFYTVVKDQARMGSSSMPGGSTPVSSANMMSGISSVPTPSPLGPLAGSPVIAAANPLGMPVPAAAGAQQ
UniProt Q99459: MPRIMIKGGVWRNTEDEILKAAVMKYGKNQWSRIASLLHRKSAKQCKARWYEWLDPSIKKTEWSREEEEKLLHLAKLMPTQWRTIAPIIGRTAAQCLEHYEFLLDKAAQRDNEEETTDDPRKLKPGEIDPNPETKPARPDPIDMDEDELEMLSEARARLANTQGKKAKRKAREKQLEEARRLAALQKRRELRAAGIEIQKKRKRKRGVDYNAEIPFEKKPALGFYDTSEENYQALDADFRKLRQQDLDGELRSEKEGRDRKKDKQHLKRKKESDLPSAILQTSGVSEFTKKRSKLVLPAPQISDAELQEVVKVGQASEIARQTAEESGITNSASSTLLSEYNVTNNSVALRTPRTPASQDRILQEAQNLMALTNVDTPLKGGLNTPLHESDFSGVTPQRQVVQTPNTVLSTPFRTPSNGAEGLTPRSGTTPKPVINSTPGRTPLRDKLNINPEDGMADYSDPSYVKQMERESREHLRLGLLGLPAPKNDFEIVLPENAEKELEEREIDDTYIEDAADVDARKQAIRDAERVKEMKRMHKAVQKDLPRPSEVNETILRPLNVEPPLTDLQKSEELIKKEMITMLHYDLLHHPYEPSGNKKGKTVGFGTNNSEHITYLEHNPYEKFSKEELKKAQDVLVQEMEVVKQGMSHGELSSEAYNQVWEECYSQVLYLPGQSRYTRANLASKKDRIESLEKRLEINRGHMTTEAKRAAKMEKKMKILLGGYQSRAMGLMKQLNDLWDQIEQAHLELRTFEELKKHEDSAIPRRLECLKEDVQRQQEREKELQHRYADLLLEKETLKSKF

B1: THRAP3 (protein, UniProt Q9Y2W1 1-955)
chain: MSKTNKSKSGSRSSRSRSASRSRSRSFSKSRSRSRSLSRSRKRRLSSRSRSRSYSPAHNRERNHPRVYQNRDFRGHNRGYRRPYYFRGRNRGFYPWGQYNRGGYGNYRSNWQNYRQAYSPRRGRSRSRSPKRRSPSPRSRSHSRNSDKSSSDRSRRSSSSRSSSNHSRVESSKRKSAKEKKSSSKDSRPSQAAGDNQGDEAKEQTFSGGTSQDTKASESSKPWPDATYGTGSASRASAVSELSPRERSPALKSPLQSVVVRRRSPRPSPVPKPSPPLSSTSQMGSTLPSGAGYQSGTHQGQFDHGSGSLSPSKKSPVGKSPPSTGSTYGSSQKEESAASGGAAYTKRYLEEQKTENGKDKEQKQTNTDKEKIKEKGSFSDTGLGDGKMKSDSFAPKTDSEKPFRGSQSPKRYKLRDDFEKKMADFHKEEMDDQDKDKAKGRKESEFDDEPKFMSKVIGANKNQEEEKSGKWEGLVYAPPGKEKQRKTEELEEESFPERSKKEDRGKRSEGGHRGFVPEKNFRVTAYKAVQEKSSSPPPRKTSESRDKLGAKGDFPTGKSSFSITREAQVNVRMDSFDEDLARPSGLLAQERKLCRDLVHSNKKEQEFRSIFQHIQSAQSQRSPSELFAQHIVTIVHHVKEHHFGSSGMTLHERFTKYLKRGTEQEAAKNKKSPEIHRRIDISPSTFRKHGLAHDEMKSPREPGYKAEGKYKDDPVDLRLDIERRKKHKERDLKRGKSRESVDSRDSSHSRERSAEKTEKTHKGSKKQKKHRRARDRSRSSSSSSQSSHSYKAEEYTEETEEREESTTGFDKSRLGTKDFVGPSERGGGRARGTFQFRARGRGWGRGNYSGNNNNNSNNDFQKRNREEEWDPEYTPKSKKYYLHDDREGEGSDKWVSRGRGRGAFPRGRGRFMFRKSSTSPKWAHDKFSGEEGEIEDDESGTENREEKDNIQPTTE
B2: TCOF1 (protein, UniProt Q13428 1-1488)
chain: MAEARKRRELLPLIYHHLLRAGYVRAAREVKEQSGQKCFLAQPVTLLDIYTHWQQTSELGRKRKAEEDAALQAKKTRVSDPISTSESSEEEEEAEAETAKATPRLASTNSSVLGADLPSSMKEKAKAETEKAGKTGNSMPHPATGKTVANLLSGKSPRKSAEPSANTTLVSETEEEGSVPAFGAAAKPGMVSAGQADSSSEDTSSSSDETDVEGKPSVKPAQVKASSVSTKESPARKAAPAPGKVGDVTPQVKGGALPPAKRAKKPEEESESSEEGSESEEEAPAGTRSQVKASEKILQVRAASAPAKGTPGKGATPAPPGKAGAVASQTKAGKPEEDSESSSEESSDSEEETPAAKALLQAKASGKTSQVGAASAPAKESPRKGAAPAPPGKTGPAVAKAQAGKREEDSQSSSEESDSEEEAPAQAKPSGKAPQVRAASAPAKESPRKGAAPAPPRKTGPAAAQVQVGKQEEDSRSSSEESDSDREALAAMNAAQVKPLGKSPQVKPASTMGMGPLGKGAGPVPPGKVGPATPSAQVGKWEEDSESSSEESSDSSDGEVPTAVAPAQEKSLGNILQAKPTSSPAKGPPQKAGPVAVQVKAEKPMDNSESSEESSDSADSEEAPAAMTAAQAKPALKIPQTKACPKKTNTTASAKVAPVRVGTQAPRKAGTATSPAGSSPAVAGGTQRPAEDSSSSEESDSEEEKTGLAVTVGQAKSVGKGLQVKAASVPVKGSLGQGTAPVLPGKTGPTVTQVKAEKQEDSESSEEESDSEEAAASPAQVKTSVKKTQAKANPAAARAPSAKGTISAPGKVVTAAAQAKQRSPSKVKPPVRNPQNSTVLARGPASVPSVGKAVATAAQAQTGPEEDSGSSEEESDSEEEAETLAQVKPSGKTHQIRAALAPAKESPRKGAAPTPPGKTGPSAAQAGKQDDSGSSSEESDSDGEAPAAVTSAQVIKPPLIFVDPNRSPAGPAATPAQAQAASTPRKARASESTARSSSSESEDEDVIPATQCLTPGIRTNVVTMPTAHPRIAPKASMAGASSSKESSRISDGKKQEGPATQVSKKNPASLPLTQAALKVLAQKASEAQPPVARTQPSSGVDSAVGTLPATSPQSTSVQAKGTNKLRKPKLPEVQQATKAPESSDDSEDSSDSSSGSEEDGEGPQGAKSAHTLGPTPSRTETLVEETAAESSEDDVVAPSQSLLSGYMTPGLTPANSQASKATPKLDSSPSVSSTLAAKDDPDGKQEAKPQQAAGMLSPKTGGKEAASGTTPQKSRKPKKGAGNPQASTLALQSNITQCLLGQPWPLNEAQVQASVVKVLTELLEQERKKVVDTTKESSRKGWESRKRKLSGDQPAARTPRSKKKKKLGAGEGGEASVSPEKTSTTSKGKAKRDKASGDVKEKKGKGSLGSQGAKDEPEEELQKGMGTVEGGDQSNPKSKKEKKKSDKRKKDKEKKEKKKKAKKASTKDSESPSQKKKKKKKKTAEQTV

target: BirA*-fused casein kinase 2 (CK2A1) (UniProt P68400); assay: proximity labelling; BioID: BirA*-kinase transfected into HEK293T for 24 h, then 50 uM biotin for 24 h; RIPA lysis, streptavidin magnetic beads 3 h at 4 °C, on-bead digestion, nanoLC/MS/MS, label-free quantification against non-transfected cells (No BirA*); triplicate

binding, binds:
CDC5L (from UniProt Q99459 1-802), B1, B2

Results are given in words; binding and its absence hold for the method and conditions named. In cells and extracts the contact can be indirect. Here binding means that the protein was enriched with, or labelled near, the bait; the list need not be complete.
